Results from article PMC2860243.
These are yes or no findings as the source states them, for the method shown. Binding seen in cells or lysates may run through a third protein. A yes stands for co-enrichment or nearness to the bait. Other partners may have been found. For some of these results: Where a sequence is shown, tags or fusion partners need not be part of it.

The chains behind the UniProt entries cited, without tags or fusion partners.
UniProt P20263: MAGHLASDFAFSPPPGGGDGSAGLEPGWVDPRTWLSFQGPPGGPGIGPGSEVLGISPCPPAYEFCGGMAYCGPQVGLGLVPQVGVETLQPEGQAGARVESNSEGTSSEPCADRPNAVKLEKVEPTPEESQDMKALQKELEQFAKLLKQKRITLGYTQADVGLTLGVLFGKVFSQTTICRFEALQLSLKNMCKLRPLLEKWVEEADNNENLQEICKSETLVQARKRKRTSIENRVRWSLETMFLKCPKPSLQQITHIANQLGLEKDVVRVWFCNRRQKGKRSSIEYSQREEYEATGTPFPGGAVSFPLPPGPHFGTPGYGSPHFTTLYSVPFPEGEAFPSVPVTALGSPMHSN
UniProt Q8BX22: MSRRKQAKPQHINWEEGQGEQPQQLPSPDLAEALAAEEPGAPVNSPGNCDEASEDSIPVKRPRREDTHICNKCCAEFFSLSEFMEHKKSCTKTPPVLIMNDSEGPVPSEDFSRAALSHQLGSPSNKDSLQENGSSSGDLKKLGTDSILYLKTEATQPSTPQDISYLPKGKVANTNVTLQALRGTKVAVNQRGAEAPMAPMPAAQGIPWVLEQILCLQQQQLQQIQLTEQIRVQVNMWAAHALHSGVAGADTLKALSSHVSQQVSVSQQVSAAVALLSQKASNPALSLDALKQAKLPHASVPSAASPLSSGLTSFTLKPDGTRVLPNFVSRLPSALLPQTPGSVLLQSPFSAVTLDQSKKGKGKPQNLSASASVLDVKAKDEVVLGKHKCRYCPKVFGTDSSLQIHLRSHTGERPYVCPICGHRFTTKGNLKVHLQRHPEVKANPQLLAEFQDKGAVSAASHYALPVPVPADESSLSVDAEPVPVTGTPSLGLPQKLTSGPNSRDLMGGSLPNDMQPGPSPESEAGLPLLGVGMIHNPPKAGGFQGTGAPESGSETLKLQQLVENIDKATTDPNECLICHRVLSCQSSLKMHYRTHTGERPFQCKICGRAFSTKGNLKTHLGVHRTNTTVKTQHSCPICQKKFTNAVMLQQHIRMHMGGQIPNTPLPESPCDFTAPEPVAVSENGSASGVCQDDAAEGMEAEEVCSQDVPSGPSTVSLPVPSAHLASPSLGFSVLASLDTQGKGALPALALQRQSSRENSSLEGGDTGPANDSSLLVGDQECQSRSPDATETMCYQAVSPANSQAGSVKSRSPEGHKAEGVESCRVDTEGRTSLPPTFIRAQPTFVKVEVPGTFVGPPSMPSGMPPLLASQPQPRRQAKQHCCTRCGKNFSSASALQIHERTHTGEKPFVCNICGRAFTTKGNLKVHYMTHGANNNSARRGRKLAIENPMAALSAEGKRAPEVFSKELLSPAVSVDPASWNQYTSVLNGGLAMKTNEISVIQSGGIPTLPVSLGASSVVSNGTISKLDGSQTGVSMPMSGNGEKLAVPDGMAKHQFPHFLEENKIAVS
UniProt P70398: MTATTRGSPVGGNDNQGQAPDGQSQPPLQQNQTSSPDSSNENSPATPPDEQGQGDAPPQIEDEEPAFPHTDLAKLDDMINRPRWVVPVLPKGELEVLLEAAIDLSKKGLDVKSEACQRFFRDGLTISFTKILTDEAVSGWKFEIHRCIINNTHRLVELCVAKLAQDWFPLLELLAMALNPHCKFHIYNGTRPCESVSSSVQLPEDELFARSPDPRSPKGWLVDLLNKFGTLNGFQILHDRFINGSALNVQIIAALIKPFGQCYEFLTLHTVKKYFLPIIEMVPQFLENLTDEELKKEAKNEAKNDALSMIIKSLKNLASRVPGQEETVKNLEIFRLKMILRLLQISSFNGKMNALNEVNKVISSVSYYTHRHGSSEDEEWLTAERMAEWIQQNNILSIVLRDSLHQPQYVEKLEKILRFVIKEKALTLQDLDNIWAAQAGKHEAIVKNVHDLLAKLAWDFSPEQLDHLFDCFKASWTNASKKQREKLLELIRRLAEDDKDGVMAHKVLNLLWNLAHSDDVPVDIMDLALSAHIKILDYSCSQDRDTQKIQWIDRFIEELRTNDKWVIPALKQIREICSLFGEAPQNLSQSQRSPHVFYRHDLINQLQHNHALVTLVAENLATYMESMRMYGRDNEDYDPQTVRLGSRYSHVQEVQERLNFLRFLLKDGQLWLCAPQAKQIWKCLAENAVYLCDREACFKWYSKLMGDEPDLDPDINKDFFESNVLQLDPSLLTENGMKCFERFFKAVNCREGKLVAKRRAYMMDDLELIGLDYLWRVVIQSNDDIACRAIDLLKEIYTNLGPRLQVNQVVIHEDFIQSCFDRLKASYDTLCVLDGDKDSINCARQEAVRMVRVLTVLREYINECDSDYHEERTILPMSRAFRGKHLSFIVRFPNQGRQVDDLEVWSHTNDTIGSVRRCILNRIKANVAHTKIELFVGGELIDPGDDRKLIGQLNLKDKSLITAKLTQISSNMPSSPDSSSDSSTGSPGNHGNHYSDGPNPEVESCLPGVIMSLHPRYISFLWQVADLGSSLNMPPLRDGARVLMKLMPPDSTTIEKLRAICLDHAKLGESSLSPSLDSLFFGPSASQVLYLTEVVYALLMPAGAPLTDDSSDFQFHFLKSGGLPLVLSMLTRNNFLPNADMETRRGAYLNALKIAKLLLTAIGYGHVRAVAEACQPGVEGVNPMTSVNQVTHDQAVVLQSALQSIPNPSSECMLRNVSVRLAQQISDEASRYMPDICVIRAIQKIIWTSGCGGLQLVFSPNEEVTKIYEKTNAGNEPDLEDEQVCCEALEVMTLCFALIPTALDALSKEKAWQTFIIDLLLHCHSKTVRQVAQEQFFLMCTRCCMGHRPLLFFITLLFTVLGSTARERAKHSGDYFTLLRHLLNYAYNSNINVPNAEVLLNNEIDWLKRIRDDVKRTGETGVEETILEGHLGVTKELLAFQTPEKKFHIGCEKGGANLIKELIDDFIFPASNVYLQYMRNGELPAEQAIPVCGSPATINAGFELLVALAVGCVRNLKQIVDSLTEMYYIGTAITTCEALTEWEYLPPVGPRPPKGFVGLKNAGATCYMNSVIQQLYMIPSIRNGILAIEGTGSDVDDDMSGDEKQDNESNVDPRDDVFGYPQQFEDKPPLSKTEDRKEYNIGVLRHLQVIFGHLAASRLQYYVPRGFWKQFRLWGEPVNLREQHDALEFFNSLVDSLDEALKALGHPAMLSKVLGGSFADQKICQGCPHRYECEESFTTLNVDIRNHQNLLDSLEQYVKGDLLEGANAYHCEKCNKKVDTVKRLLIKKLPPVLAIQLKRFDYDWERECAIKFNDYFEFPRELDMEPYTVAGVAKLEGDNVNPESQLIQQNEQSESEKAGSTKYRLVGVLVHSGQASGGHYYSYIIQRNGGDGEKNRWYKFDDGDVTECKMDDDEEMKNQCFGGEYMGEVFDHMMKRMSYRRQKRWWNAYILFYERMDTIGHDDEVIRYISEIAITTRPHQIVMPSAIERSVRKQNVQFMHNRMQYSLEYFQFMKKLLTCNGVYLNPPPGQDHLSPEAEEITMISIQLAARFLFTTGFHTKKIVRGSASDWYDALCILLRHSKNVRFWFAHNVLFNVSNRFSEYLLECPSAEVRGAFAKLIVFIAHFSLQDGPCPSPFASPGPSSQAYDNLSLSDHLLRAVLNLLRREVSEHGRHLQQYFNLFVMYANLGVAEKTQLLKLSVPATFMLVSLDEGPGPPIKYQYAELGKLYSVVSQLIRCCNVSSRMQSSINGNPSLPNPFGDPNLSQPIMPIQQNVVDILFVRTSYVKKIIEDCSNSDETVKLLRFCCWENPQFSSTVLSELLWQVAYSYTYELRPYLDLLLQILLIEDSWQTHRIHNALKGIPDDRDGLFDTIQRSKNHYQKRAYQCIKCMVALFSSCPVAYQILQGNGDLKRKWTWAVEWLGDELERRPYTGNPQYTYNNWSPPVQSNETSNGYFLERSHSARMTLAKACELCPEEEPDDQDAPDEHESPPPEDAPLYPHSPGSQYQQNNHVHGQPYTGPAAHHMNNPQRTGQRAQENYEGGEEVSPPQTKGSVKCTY
UniProt Q60596: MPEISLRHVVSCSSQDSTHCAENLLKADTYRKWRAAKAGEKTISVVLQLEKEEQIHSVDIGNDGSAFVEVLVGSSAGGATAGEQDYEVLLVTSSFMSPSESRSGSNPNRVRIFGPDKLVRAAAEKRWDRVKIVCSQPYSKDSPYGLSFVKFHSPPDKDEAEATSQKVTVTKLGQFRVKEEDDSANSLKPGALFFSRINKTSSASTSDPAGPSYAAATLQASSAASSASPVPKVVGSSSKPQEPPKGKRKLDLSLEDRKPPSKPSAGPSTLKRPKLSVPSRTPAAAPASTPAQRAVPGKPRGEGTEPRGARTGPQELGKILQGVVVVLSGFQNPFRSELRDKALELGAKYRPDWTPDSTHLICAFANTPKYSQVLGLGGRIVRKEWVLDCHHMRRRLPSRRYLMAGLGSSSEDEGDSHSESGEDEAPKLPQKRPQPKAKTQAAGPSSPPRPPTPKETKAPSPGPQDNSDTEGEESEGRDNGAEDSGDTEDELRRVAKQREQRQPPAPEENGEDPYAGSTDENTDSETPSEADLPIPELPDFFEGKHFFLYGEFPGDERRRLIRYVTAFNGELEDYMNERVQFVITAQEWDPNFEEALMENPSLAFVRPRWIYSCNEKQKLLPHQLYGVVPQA
UniProt Q9Z0Z7: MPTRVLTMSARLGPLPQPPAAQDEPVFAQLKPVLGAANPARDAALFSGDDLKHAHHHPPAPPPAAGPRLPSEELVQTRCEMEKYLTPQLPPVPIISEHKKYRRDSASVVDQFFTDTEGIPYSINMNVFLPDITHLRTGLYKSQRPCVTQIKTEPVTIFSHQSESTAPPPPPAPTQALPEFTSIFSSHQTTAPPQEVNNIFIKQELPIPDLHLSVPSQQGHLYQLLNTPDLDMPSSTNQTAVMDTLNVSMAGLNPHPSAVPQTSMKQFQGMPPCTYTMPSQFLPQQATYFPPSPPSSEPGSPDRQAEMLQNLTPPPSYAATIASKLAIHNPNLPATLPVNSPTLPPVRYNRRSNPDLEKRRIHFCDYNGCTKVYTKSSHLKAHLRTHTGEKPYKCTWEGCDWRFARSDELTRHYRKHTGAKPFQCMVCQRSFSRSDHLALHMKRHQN
UniProt Q9CQE6: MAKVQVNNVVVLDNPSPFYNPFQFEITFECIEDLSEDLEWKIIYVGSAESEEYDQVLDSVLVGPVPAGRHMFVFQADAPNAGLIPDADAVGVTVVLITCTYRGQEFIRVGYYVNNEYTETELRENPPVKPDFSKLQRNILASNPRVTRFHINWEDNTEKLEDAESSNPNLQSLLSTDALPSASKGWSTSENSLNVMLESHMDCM
UniProt P48972: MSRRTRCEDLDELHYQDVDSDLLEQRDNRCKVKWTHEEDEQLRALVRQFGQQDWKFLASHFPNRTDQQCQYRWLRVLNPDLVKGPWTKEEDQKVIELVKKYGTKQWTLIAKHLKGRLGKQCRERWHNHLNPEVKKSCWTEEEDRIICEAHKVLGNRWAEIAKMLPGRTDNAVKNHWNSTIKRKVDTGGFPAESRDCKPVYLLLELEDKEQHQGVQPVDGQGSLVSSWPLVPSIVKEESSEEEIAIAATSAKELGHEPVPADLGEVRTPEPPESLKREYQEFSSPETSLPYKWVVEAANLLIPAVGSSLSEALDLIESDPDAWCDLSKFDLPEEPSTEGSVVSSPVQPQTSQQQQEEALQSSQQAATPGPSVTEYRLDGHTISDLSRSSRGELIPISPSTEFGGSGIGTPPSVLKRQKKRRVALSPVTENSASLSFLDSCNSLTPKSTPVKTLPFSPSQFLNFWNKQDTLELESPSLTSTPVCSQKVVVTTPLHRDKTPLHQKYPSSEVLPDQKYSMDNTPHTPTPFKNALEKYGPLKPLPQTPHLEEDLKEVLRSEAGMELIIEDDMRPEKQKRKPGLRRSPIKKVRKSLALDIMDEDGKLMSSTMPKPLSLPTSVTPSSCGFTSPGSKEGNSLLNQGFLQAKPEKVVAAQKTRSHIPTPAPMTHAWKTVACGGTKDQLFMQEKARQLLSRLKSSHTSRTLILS
UniProt Q8VEE4: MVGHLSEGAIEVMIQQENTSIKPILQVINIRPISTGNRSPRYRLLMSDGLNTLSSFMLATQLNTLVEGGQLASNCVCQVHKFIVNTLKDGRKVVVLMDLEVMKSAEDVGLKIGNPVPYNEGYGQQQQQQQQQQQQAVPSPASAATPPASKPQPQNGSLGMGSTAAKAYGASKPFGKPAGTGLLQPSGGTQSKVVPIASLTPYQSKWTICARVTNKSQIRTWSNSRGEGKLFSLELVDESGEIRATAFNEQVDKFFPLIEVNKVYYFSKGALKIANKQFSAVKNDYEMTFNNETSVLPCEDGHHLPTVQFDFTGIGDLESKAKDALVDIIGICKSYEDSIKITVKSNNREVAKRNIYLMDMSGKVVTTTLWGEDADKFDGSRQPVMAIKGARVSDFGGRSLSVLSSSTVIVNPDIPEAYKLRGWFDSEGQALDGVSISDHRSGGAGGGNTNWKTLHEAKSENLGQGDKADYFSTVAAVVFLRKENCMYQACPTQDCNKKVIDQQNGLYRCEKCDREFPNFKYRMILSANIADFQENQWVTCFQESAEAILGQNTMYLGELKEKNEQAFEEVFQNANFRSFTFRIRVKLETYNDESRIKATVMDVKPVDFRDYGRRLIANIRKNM

Columns and labels:
[1] = biological target: FLAG-Oct4 (F-Oct4) (mouse) (UniProt P20263); experiment: affinity purification with mass spectrometry; FLAG-affinity purification of F-Oct4 from 1.5 ml ESC nuclear extract on anti-FLAG M2 agarose, buffer C-100 (20 mM HEPES pH 7.6, 100 mM KCl), washes with 0.02% NP-40, Benzonase, 4°C, FLAG peptide elution; three purifications; control ZHBTc4 extract
[2] = biological target: FLAG-tagged Sall4 (F-Sall4) (mouse) (UniProt Q8BX22); experiment: affinity purification with mass spectrometry; FLAG-affinity purification of F-Sall4, F-Dax1, F-Tcfcp2l1 or F-Esrrb from nuclear extract of ZHBTc4-derived ESC clones, buffer C-100, Benzonase, FLAG peptide elution; two purifications each without and with doxycycline (16 hr, Oct4 removed); hits present in both -Dox purifications
[3] = biological target: T1, FLAG-tagged Tcfcp2l1 (F-Tcfcp2l1) (mouse) (UniProt Q3UNW5); experiment: as above
T1 sequence: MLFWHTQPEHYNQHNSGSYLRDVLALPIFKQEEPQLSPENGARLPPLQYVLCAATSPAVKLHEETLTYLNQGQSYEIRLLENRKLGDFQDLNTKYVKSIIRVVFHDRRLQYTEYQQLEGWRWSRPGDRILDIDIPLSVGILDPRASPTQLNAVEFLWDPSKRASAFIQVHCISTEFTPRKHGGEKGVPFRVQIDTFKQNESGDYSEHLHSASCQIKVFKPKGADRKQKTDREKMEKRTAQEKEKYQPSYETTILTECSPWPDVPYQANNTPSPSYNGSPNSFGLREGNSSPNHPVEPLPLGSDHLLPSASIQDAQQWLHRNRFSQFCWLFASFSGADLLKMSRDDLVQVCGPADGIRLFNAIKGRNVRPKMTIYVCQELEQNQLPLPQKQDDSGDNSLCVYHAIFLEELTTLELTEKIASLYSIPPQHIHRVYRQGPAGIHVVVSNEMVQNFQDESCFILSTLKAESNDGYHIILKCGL

[4] = biological target: Oct4 (Pou5f1) (mouse (endogenous in 46C ESCs)) (UniProt P20263); experiment: affinity purification with mass spectrometry; immunoprecipitation of endogenous Oct4 (antibody sc-8628 cross-linked to protein G Sepharose) from 1 ml 46C ESC nuclear extract, Benzonase, washes with C-100*, 4°C, boiled in SDS-loading dye; control goat IgG
[5] = biological target: T2, FLAG-tagged Esrrb (F-Esrrb) (mouse) (UniProt Q61539); experiment: affinity purification with mass spectrometry; FLAG-affinity purification of F-Sall4, F-Dax1, F-Tcfcp2l1 or F-Esrrb from nuclear extract of ZHBTc4-derived ESC clones, buffer C-100, Benzonase, FLAG peptide elution; two purifications each without and with doxycycline (16 hr, Oct4 removed); hits present in both -Dox purifications
T2 sequence: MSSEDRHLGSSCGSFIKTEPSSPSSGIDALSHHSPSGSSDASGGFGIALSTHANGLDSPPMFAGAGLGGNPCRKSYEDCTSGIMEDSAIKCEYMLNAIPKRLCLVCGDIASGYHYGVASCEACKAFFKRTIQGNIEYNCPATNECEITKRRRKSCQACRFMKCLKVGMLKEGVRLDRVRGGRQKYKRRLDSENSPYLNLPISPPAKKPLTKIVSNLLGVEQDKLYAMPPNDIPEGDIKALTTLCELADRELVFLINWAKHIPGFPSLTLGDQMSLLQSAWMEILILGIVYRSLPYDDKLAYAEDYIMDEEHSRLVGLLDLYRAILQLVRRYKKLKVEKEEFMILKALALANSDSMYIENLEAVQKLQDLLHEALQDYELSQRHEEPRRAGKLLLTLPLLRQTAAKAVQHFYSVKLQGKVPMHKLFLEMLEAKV

[6] = biological target: T3, FLAG-tagged Dax1 (F-Dax1) (mouse) (UniProt Q61066); experiment: as above
T3 sequence: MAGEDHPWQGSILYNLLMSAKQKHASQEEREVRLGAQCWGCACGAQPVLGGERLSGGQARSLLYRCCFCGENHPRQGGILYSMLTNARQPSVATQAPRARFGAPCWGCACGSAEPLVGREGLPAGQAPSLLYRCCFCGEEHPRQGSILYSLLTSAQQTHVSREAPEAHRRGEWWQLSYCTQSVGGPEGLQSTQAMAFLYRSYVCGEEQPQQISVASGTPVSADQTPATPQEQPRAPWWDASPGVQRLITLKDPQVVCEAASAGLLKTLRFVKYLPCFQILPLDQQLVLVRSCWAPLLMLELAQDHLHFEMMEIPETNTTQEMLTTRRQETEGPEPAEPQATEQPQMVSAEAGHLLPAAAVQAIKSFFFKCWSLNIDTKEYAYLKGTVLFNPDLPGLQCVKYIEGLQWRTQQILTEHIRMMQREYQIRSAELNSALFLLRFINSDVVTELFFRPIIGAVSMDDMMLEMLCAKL

Row | Substance | binding [1] | binding [3] | binding [4] | also measured
1 | Rif1 (from UniProt Q6PR54 1-2419) | binds |  |  | 
2 | Usp9x (from UniProt P70398 1-2559) |  |  |  | binding [2]: binds
3 | Baf155 (Smarcc1) (from UniProt P97496 1-1104) | binds |  |  | 
4 | Xrcc1 (from UniProt Q60596 1-631) |  | binds |  | 
5 | Mga (from UniProt A2AWL7 1-3003) | binds |  | binds | 
6 | Brg1 (Smarca4) (from UniProt Q3TKT4 1-1613) | binds |  |  | 
7 | Nrip (mouse (endogenous in mouse ESCs)) |  |  |  | binding [5]: binds
8 | Ring1B (Rnf2) (from UniProt Q9CQJ4 1-336) | binds |  | binds | 
9 | Prkdc (from UniProt P97313 1-4128) |  | binds |  | 
10 | Xrcc5 (from UniProt P27641 1-732) |  | binds |  | 
11 | Msh6 (from UniProt P54276 1-1358) |  | binds |  | 
12 | pnkp (from UniProt Q9JLV6 1-522) |  | binds |  | 
13 | Klf5 (from UniProt Q9Z0Z7 1-446) | binds | binds | binds | binding [2]: binds
14 | Requiem (from UniProt Q61103 1-391) | binds |  | binds | 
15 | Asf1a (from UniProt Q9CQE6 1-204) |  | binds |  | 
16 | Xrcc6 (from UniProt P23475 1-608) |  | binds |  | 
17 | Rcor2 (from UniProt Q8C796 1-523) | binds |  | binds | 
18 | Ctbp2 (from UniProt P56546 1-445) | binds |  | binds | 
19 | Sall4 (from UniProt Q8BX22 1-1067) | binds | binds | binds | binding [6]: binds; binding [5]: binds
20 | Rbpj (from UniProt P31266 1-526) | binds |  | binds | 
21 | Frg1 (from UniProt P97376 1-258) | binds |  | binds | 
22 | Mybl2 (from UniProt P48972 1-704) |  | binds |  | 
23 | Akap8 (from UniProt Q9DBR0 1-687) | binds |  | binds | 
24 | Ep400 (from UniProt Q8CHI8 1-3072) | binds |  | binds | 
25 | Zfp462 (from UniProt B1AWL2 1-2495) | binds |  | binds | 
26 | Rpa1 (from UniProt Q8VEE4 1-623) |  | binds |  | 
